Data as given in patent publication US6995018.
Results are given in words; binding and its absence hold for the method and conditions named. Binding calls can cover weak binding; strength is not graded here.

Sequences of proteins named here, by UniProt entry; tags and fusion partners are left off. A change or cut given only in a name is not applied to a line headed by its entry. Residues count along the entry.
UniProt P08603, residues 19-1231: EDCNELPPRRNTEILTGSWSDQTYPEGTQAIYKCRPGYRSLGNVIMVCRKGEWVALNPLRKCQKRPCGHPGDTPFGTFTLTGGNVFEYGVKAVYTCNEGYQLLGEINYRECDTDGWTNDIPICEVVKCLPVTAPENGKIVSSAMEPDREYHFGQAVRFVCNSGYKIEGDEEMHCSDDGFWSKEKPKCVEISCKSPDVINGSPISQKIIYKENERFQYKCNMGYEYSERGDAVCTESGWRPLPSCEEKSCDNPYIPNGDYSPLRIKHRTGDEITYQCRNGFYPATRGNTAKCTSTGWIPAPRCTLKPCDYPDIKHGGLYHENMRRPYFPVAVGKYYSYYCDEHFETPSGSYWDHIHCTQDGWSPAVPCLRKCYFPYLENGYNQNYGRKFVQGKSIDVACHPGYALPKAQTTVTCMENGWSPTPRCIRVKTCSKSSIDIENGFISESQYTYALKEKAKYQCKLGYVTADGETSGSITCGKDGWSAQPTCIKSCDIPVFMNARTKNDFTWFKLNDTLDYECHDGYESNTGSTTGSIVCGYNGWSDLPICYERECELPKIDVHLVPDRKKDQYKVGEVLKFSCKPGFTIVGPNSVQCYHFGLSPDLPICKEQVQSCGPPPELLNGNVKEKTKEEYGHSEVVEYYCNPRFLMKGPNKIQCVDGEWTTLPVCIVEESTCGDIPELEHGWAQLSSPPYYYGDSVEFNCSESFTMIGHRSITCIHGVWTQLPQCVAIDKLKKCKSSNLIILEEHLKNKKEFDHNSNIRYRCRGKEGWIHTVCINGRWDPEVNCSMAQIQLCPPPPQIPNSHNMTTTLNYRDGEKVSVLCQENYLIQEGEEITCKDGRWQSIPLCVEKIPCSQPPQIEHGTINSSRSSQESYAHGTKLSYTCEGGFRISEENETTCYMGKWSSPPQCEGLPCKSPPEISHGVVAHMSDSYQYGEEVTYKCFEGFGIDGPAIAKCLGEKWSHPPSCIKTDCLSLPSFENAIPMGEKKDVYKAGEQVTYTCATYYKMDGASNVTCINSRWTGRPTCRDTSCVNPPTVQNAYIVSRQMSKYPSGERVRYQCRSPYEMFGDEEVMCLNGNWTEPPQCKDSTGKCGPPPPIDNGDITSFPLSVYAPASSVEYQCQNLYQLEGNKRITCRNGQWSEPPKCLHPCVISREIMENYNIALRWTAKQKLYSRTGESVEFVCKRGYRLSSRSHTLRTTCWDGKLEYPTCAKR
UniProt P10451: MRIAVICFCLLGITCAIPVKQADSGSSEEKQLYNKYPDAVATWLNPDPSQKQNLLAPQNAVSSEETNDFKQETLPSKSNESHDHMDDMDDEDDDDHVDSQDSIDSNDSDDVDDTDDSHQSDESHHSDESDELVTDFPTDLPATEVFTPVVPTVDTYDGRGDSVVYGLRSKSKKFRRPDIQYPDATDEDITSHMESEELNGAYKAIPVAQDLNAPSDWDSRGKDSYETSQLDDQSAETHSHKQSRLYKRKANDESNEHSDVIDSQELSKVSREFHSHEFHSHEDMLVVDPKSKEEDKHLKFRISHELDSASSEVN

Assays:
[1] = target: human complement Factor H (human) (UniProt P08603); experiment: summary of the experiments of section II
[2] = target: human complement Factor H (human) (UniProt P08603); experiment: steady state tryptophan fluorescence quenching, titration of Factor H
[3] = target: human complement Factor H (human) (UniProt P08603); experiment: steady state fluorescence, titration of purified human Factor H with rOPN

Measured: binding

recombinant osteopontin (rOPN) (from UniProt P10451) (ligand)
binds: all assays above
